Measured values as given in PMC11151013.
Results are given in words; binding and its absence hold for the method and conditions named. In cells and extracts the contact can be indirect. Some binding calls cover weakened binding; strength is not graded here.

Protein sequences, listed by entry. Tags and fused reporters are not part of them.
UniProt Q01844: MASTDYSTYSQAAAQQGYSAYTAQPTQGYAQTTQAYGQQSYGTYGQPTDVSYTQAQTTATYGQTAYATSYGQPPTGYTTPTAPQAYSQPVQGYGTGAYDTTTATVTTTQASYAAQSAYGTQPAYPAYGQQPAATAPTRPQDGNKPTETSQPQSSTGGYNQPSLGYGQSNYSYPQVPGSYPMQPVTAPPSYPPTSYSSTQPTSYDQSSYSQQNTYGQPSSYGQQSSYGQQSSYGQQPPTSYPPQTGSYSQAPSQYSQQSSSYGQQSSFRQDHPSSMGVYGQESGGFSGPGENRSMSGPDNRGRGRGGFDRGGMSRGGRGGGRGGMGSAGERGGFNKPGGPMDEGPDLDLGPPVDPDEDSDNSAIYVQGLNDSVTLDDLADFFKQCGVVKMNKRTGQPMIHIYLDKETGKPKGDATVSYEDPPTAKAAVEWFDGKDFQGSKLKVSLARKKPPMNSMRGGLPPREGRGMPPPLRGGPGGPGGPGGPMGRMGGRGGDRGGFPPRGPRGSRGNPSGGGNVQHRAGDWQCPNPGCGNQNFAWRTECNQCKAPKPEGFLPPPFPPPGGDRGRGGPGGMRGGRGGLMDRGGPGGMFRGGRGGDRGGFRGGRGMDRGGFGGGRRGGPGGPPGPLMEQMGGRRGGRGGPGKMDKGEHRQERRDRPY
UniProt Q9NS91: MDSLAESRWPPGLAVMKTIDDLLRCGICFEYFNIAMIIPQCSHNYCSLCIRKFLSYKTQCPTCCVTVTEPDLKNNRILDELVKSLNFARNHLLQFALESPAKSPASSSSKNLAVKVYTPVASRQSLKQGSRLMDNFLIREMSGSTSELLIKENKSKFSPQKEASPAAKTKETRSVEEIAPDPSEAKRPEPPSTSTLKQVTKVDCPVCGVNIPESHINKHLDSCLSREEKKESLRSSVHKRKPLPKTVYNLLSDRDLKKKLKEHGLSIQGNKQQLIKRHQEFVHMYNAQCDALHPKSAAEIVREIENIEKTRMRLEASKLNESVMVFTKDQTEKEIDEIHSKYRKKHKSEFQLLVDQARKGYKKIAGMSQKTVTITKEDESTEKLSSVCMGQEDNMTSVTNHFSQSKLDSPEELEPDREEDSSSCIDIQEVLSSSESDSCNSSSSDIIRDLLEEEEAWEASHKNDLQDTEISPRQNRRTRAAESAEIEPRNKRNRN

Assays:
FLAG-tagged EWSR1(1-656) = FLAG-tagged EWSR1(1-656) (UniProt Q01844); assay: co-IP; 293T cells transfected with vectors for FLAG-tagged EWSR1 and its truncations; western blot
[1] = target: EWS RNA-binding protein 1 (EWSR1) (human (endogenous in HCC cell lines)) (UniProt Q01844); assay: co-IP; endogenous proteins; 1 x 10^7 HCC cells in 1 mL IP lysis buffer, sonicated; supernatant with anti-human EWSR1 (CST 11910, 5 ug) or rabbit IgG for 4 h and beads for 2 h; western blot; also in cells with LINC01116 overexpression or knockdown (binding reduced or enhanced)

Row | binding (FLAG-tagged EWSR1(1-656)) | binding [1] | Substance
1 | binds | – | RAD18 in 293T cells (from UniProt Q9NS91 1-495)
2 | – | binds | RAD18 E3 Ubiquitin Protein Ligase (RAD18) (from UniProt Q9NS91 1-495)
